In PubChem BioAssay AID1508600 (Functional Genomics Laboratory (NCATS/FGL), 2020) one finds z-score data, which are given here for 106 sequences.

Out of some 53,000 sequences screened, about 3,700 (7%) were called active.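 Rule for the calls: active = gene knockdowns whose robust z-score for IL-1 alpha signal is at least 2 or at most -2, so actives lie on both sides; inactive = the rest.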 The list shows a part of the results.

The nature of the assay: Components of the Cytosolic LPS Sensing Pathway: Gene Identification via Genome-wide siRNA Screen.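 Note: robust z of the log signal after scaling to non-targeting control siRNA wells of the plate.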 To be noted: RAW264.7 macrophages, IL-1a HTRF, actives lie on both sides, screened at 100 nM (by protocol), cells primed 5 h with Pam3CSK4 first. In short, it runs like this: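 Cells (RAW264.7, 1×10^4 per well) were transfected with siRNA at 100 nM and cultured 48h at 37 degrees C. Pam3CSK4 was added for 5 hours; LipidA transfection followed for 24 hour. IL-1a was then measured by HTRF.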
Background: TR-FRET usually uses a lanthanide donor and a delayed reading to cut background.
GGCUUGCUAAAGGAUGGGATT against Coq8b: the z-score is inactive: 0.0536.

For GGUACAUGUCACUGUGGCATT against Itgbl1, the z-score is inactive: -0.96.

With GGAUGUGACGCACACAUGUTT against Cdip1, the z-score was inactive: 1.11.

On to CGCAUCACCCAGUACAUCUTT against Pacs2, for which the z-score is inactive: 1.31.

Take GGAUGUCACAUGACAGUUUTT against Tmprss4: the z-score was inactive: 0.563.

CGAGCUAUAUCCCAUGGAGTT against Penk: the z-score is inactive: 0.0585.

With GGGAAAGACCAUGUUUGUATT against Ttbk2, the z-score is inactive: 0.493.

With CCUUCGGCAACUUUCUAUUTT against Med30, the z-score was inactive: -1.31.

Turning to “GGACACUGUGGAUAAUGACTT against 1810009J06Rik”, the z-score was inactive: -1.84.

As for “GGAGACAAUCUGGAUAAGCTT against 2810032G03Rik”, the z-score is inactive: -0.682.

Consider GGAGGUCUUCAGUUCUUACTT against Fntb, for which the z-score is inactive: -1.08.

For CGCUACGACUAGAGUUUGCTT against Rbpms, the z-score was active: 2.36.

Turning to GGACUUAGACAUCCACCUCTT against Llcfc1, the z-score is inactive: -1.64.

As for GGAAUUCCCAUAAAUCAGUTT against Nadk, the z-score is inactive: -1.17.

On to GGUCAAUUUGGUUUGUGAATT against Cenpa, for which the z-score was inactive: -0.374.

For GGGAGAAGGUAAAAGAAAATT against Ccdc73, the z-score is inactive: -0.488.

In the case of GGCCAUACGGACCAUGUAUTT against Slc25a19, the z-score is inactive: -1.25.

Turning to CGAUUCCAGAAGAUCAUGUTT against Ott, the z-score is inactive: -1.28.

In the case of GGUAAACCUGUGUUUUGAUTT against Cyfip2, the z-score is inactive: -1.54.

As to GGCUGUAUGAAUCAAAGGATT against Nr5a2, the z-score is inactive: 1.37.

As to GGAAAUCGAAACUGUCUGCTT against Rabepk, the z-score is inactive: -0.085.

In the case of GCCUACGAGGACAGUACAATT against Mst1r, the z-score was inactive: 1.16.

Consider CCGAAAUAAAGGAGUUGAUTT against Rab3gap2, for which the z-score was inactive: -0.249.

Regarding GGCAUAUGCAUGUUAUAUCTT against Fbxw21, the z-score was inactive: -1.34.

Turning to CCCAUCUUUCAUCAGCGACTT against Heg1, the z-score is inactive: -0.668.

With GGCUGGUCUCCAAACCCAATT against F13b, the z-score was inactive: 0.229.

For the sequence GCCACGUAGACUGAUAUAGTT against Irf5, the z-score is inactive: -1.16.

Take GGAAAGACUUGAUGGUCUGTT against Nap1l1: the z-score is inactive: 0.416.

As for CCCAUCCAAUGCUUAUGUGTT against Scg5, the z-score is inactive: -0.421.

With GGACUCCCUGAGAACCUGATT against Coil, the z-score is inactive: -0.317.

For GGCCAUCGAGGACUCUUCUTT against Dnaaf4, the z-score was inactive: -0.402.

For CGGCAUCUGUAAGAACGUGTT against Adamts7, the z-score was inactive: -0.934.

Take CCACGAGUGAAUUAUAAUCTT against Zfp273: the z-score is inactive: -1.31.

For GGUCUGCAUCGACUCUGAGTT against Atox1, the z-score is inactive: -1.19.

Regarding CCGAAAGAAAUGGACCCGATT against Pou2f2, the z-score was inactive: 0.516.

GGACGAUUUAAGGAUUUUUTT against Dcun1d1: the z-score is active: -2.4.

As for GCUAGACCUAAGGAGCAAATT against Axin1, the z-score was active: 3.59.

For the sequence CGAAAUCUUUUCUAACCACTT against Drd4, the z-score was active: 6.59.

Regarding GGUUCUGAACCAGCUGGAGTT against Chd3, the z-score was active: 2.72.

With GCAUCCCUUUGAUCGCUACTT against Serpina11, the z-score is inactive: -1.81.

As for GCCAUUUUAGAGCAGAUCCTT against Rundc3a, the z-score was active: -2.33.

Consider CGGUUCUUCCAUCAAAUGGTT against Prodh, for which the z-score is inactive: 1.07.

Turning to GGCUCACACUCCUGUUAAUTT against Fam20c, the z-score was inactive: -1.02.

As to GGAAAGCAUCGAGGAAGACTT against Rbm28, the z-score was inactive: 1.03.

As to GGUGUUACAUAUGAGGAAUTT against Ociad1, the z-score is inactive: 1.61.

As for GCUAUCCGUGCUAGAUAUGTT against Elp3, the z-score was inactive: 0.604.

As to GGCCAGAAGAUCUUCACCATT against Furin, the z-score was inactive: 0.449.

On to GGGCUAGACGAGAAUACUGTT against Bhmt2, for which the z-score is inactive: 0.363.

Regarding GGCUUUGACAAUCUUUAAGTT against Ergic1, the z-score was inactive: -0.687.

GGGCUGAUCUUUUUAACUGTT against Tpm3: the z-score is inactive: -0.581.

As to UCCUGGAGAUUUGACCGAGTT against Sp3os, the z-score is inactive: -0.752.

Consider GGUUUUACAAAUGAACUUGTT against Cacna2d1, for which the z-score was inactive: -0.405.

With GGAGACACGACUUUAAAAATT against Slco1c1, the z-score is inactive: -0.708.

In the case of UUUGGUAUGGCUCUACUAUTT against Olfr523, the z-score was inactive: 0.952.

In the case of CCUAAGACAUGCAACAUGATT against Adam25, the z-score is inactive: 0.683.

As for GCAAGUCGAUACUGGGUGATT against T2, the z-score is inactive: 0.551.

GGUGGUAUUUGAAGAGACATT against Ddit4l: the z-score is inactive: -0.0493.

Take GGAGGACAAAGAGGCACAGTT against Gip: the z-score was inactive: 0.414.

Take GGGCUUUGAUCAGUUCUACTT against Hoxd11: the z-score is inactive: 1.88.

As to CCAGAUACUCAAUUCUUUGTT against Bcl3, the z-score is inactive: 0.651.

On to GGACCUGUAUUCUCAGGGATT against Lce1a2, for which the z-score is inactive: -0.251.

Take GCGGGAAUGAAGAAACACGTT against Eea1: the z-score was inactive: 0.801.

In the case of GCUGAACGACCAAGUGUAATT against Lrrc15, the z-score is inactive: 1.51.

As for CCUAAACAGGUUGAUAGGCTT against Tuba1a, the z-score is inactive: 0.941.

On to GGGAGUUACUAACCACUUCTT against Gja3, for which the z-score was active: -2.05.

With GGCAGAUUUAGACACCAUATT against Synpr, the z-score is inactive: -1.86.

Consider GCAUGGAUAUCCUAUUGACTT against Fmo5, for which the z-score is inactive: -0.574.

Regarding CCUGAGUAUGCCUAUUAUUTT against Snapc1, the z-score is inactive: -0.153.

With GGAAAUCGUAUACAGGGACTT against Prkx, the z-score is inactive: -0.724.

Turning to GGGUCACCCAUUAUUUUAUTT against Phyhip, the z-score is inactive: -0.899.

“GGAUACAGAACACAGGAGCTT against A430090L17Rik”: the z-score was inactive: 0.804.

As for GGUCAAAGCAUCAAGGUGGTT against Oprl1, the z-score was inactive: -0.268.

GGAAAUCUAAAAGUCCUCCTT against Il17re: the z-score was inactive: 0.2.

With GGAACAUUACCAUCAAGCUTT against Eif2s3x, the z-score is inactive: -1.47.

As to GGUUCUGAGUAUUUAAAGCTT against Nt5dc3, the z-score was active: 2.21.

As to GGUUCAGCCAGAAUUUUCGTT against Lefty2, the z-score is inactive: 0.876.

Take CGCCAAACAGGCUAGAUCUTT against Ephb2: the z-score is inactive: -0.101.

Turning to CCAGAAUGCCACUGAGAAATT against Fam149b, the z-score was inactive: -1.22.

With GCCAUGUUCCUUUAUAACATT against Prps1, the z-score was inactive: -0.997.

For GCACUGUACAGCCGUUUAUTT against Tktl2, the z-score was inactive: 0.708.

Consider CGAGACAAGGUAGAAAGUATT against Spire1, for which the z-score is inactive: 1.32.

On to GCUUUGGACAAUAAGAAGUTT against Cdkl1, for which the z-score was inactive: -0.838.

For the sequence GCCAAGAGUCAACAUCACATT against Eng, the z-score was inactive: -0.529.

For the sequence ACAGCUCUUCCAACCACCUTT against Rtn4rl2, the z-score is inactive: -0.759.

As to GGAGAGACACUUUUUGAAATT against Ccdc158, the z-score is inactive: -0.582.

With GGUAAAAGUGGUUCUGUUCTT against Olfr1143, the z-score was inactive: -1.15.

Regarding GGAUACGAUGGAAAUAAUGTT against Nek6, the z-score was inactive: -0.431.

As to GGAAUUAGUCUAGAAAACGTT against Odf2l, the z-score is inactive: -0.124.

Take GGCCUUUACACGUGAGUCUTT against Zfp420: the z-score was inactive: -0.864.

For GGCUUCCUGAUUCAAGAUGTT against Gzmd, the z-score was inactive: -1.07.

Consider GGAGAAUGCCAAGCAUCGATT against Ip6k2, for which the z-score was inactive: -0.381.

As to CCUGCUACCUGCUGUAUUATT against Gm4983, the z-score is inactive: 0.0802.

On to GGAUCUAAAGCUUGAACCUTT against Pheta1, for which the z-score was inactive: 1.24.

Consider GCAACGUGGUCAUCAAUCUTT against Ndufa9, for which the z-score is inactive: -0.743.

Take GGAUUUUCUUGACAAGCCATT against Rnf146: the z-score is inactive: -0.217.

For the sequence GAUAUAGCCACAGUGUUUUTT against Vmn1r215, the z-score was inactive: -0.873.

In the case of “CAAGGAAUACACUCAGAACTT against A730008H23Rik”, the z-score is inactive: -0.0935.

GGGUGGUUGGAAAUGAUACTT against Kdr: the z-score was inactive: 0.192.

For the sequence GGUGACUUCAUUUAGUUUGTT against Zfp352, the z-score was inactive: 1.89.

As for “CGGUAACUUUGUCGUUUAGTT against 4930544G11Rik”, the z-score is inactive: 0.129.

Turning to CCACUACUCGCCUUGGAAUTT against Slc25a11, the z-score was inactive: -0.595.

As to GGACAAUGUUUUGAUGAGUTT against Fam3c, the z-score is inactive: -0.313.

With GGGCCAUGCUAACCCUUAATT against Vstm5, the z-score was inactive: -1.67.

GGUUUGGUAAGUCAUCUUATT against Dapp1: the z-score was inactive: -0.345.

On to GCCCUAGUGAGAGGAAACCTT against Tmem269, for which the z-score is inactive: 0.101.

GGAAGAAUUGGCAAGUGCUTT against Tctex1d2: the z-score is inactive: 1.36.
